This experiment concerns the target T1, endogenous Xchk1 of Xenopus egg extract (Xenopus) (UniProt Q6DE87).
T1 sequence (looked up): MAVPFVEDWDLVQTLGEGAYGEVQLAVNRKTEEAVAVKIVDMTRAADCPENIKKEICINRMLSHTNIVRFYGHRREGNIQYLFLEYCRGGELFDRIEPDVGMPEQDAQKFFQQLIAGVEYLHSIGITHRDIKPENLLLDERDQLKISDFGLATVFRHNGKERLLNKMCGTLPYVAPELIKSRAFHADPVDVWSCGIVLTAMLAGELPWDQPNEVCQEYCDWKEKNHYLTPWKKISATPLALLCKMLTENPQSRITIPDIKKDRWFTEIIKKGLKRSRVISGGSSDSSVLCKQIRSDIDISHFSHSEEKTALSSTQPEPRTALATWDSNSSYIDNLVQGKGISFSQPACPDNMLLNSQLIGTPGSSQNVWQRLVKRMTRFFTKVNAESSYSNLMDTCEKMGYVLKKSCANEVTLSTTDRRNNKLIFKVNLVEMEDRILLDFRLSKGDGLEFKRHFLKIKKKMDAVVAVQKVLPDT
Nature of the experiment: co-immunoprecipitation from egg extract with anti-Xchk1 antibodies, immunoblot with anti-Claspin antibodies; binding was significantly reduced with caffeine. A general note: A western blot detects proteins with antibodies after separation by electrophoresis.

The chains behind the UniProt entries cited, without tags or fusion partners. Where a name states a change or a piece, a line headed by the entry shows the natural chain unless it says otherwise.
UniProt Q9DF50: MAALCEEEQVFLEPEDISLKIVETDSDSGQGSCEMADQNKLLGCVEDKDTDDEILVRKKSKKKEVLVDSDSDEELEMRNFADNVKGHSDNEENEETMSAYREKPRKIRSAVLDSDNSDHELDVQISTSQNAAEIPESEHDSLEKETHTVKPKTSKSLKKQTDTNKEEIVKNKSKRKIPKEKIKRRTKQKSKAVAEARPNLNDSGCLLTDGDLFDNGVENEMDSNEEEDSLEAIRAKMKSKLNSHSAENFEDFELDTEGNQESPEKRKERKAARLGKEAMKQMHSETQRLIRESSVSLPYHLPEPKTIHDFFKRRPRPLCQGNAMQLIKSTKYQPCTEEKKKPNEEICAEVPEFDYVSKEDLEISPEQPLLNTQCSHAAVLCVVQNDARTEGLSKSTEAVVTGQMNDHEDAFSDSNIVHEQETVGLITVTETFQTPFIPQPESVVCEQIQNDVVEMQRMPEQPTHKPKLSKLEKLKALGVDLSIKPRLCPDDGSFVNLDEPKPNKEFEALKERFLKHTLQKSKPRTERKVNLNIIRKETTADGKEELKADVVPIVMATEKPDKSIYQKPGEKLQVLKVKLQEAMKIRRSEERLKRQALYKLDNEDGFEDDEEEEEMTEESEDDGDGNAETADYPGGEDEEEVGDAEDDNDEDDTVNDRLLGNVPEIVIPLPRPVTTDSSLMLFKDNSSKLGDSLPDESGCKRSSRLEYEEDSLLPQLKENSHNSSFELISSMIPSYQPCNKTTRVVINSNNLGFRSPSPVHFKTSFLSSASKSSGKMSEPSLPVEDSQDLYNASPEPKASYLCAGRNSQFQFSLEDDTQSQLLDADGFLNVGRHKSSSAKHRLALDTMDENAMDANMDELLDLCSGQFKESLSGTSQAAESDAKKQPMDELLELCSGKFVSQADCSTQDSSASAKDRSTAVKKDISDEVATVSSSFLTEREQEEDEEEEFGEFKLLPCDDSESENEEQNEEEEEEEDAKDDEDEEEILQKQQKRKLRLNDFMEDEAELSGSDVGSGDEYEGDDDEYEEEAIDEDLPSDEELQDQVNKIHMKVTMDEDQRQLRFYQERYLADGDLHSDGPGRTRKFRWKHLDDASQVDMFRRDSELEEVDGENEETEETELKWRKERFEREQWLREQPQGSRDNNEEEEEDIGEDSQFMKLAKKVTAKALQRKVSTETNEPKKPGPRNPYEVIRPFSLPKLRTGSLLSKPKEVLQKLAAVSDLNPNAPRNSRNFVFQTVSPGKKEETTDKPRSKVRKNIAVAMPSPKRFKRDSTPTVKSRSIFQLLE

These are yes or no findings as the source states them, for the method shown. Binding seen in cells or lysates may run through a third protein. Some binding calls cover weakened binding; strength is not graded here.

For “endogenous Claspin of Xenopus egg extract (from UniProt Q9DF50 1-1285)”, the binding result was “binds”.
